The values below come from publication PMC4746701.

Where a chain is given by its changes, count along the chain named. In names and notes the source's numbering stands. Results are given in words; binding and its absence hold for the method and conditions named. For some of these results: In cells and extracts the contact can be indirect. For some of these results: Tags and fused reporters may be left off the sequences shown.

In test [1] the target is full-length mouse SEL1L (SEL1L-HA and SEL1L-FLAG) (mouse) (UniProt Q9Z2G6). Nature of the test: co-IP; HEK293T co-transfected; lysis in 50 mM Tris pH 7.4, 150 mM NaCl, 0.1% Triton X-100, 5% glycerol; IP anti-FLAG and blot anti-HA (Fig. 4A) or IP anti-HA and blot anti-FLAG (Fig. 4D).
Test [2] has as its target SEL1L^cent triple point mutant (I515A, L516A, Y519A) (Mus musculus) (UniProt Q9Z2G6). Nature of the test: SEC; Superdex 200; 25 mM Tris, 150 mM NaCl, 5 mM DTT, pH 7.5; both purified.
Test [3] has as its target SEL1L^cent G512K/G513K double mutant (Mus musculus) (UniProt Q9Z2G6). The test is described as above.
The target in test [4] is SEL1L^cent L521A (Mus musculus) (UniProt Q9Z2G6). The test is described as above.
The target of test [5] is SEL1L^348–497 (C-terminal deletion mutant of SEL1L^cent lacking SLR motif 9) (Mus musculus) (UniProt Q9Z2G6). In words: AUC; analytical ultracentrifugation of purified protein (Supplementary Fig. 2C); both purified.
Test [6] shares this target. In words: SEC; Superdex 200; 25 mM Tris, 150 mM NaCl, 5 mM DTT, pH 7.5; both purified.

B1: SEL1L^348–497-KDEL (SEL1L^348–497-FLAG-KDEL) (domain or fragment, UniProt Q9Z2G6 348-497)
chain: NSGMLEEDLIQYYQFLAEKGDVQAQVGLGQLHLHGGRGVEQNHQRAFDYFNLAANAGNSHAMAFLGKMYSEGSDIVPQSNETALHYFKKAADMGNPVGQSGLGMAYLYGRGVQVNYDLALKYFQKAAEQGWVDGQLQLGSMYYNGIGVKRKDEL
For the molecule B1, in test [1], the binding result is on record as “no binding”.

B2: SEL1L^cent triple point mutant (I515A, L516A, Y519A) (domain or fragment, UniProt Q9Z2G6 348-533)
chain: NSGMLEEDLIQYYQFLAEKGDVQAQVGLGQLHLHGGRGVEQNHQRAFDYFNLAANAGNSHAMAFLGKMYSEGSDIVPQSNETALHYFKKAADMGNPVGQSGLGMAYLYGRGVQVNYDLALKYFQKAAEQGWVDGQLQLGSMYYNGIGVKRDYKQALKYFNLASQGGHAAAFANLAQMHASGTGVMR
For the molecule B2, the binding entry in test [2] is on record as “no binding”.

B3: SEL1L^cent G512K/G513K double mutant (domain or fragment, UniProt Q9Z2G6 348-533)
chain: B2 chain with G165K, G166K, A168I, A169L, A172Y
In the case of B3, the binding result in test [3] was “no binding”.

B4: SEL1L^cent L521A (domain or fragment, UniProt Q9Z2G6 348-533)
chain: B2 chain with A168I, A169L, A172Y, L174A
B4: the binding entry in test [4] is “no binding”.

B5: SEL1L^348–497 (C-terminal deletion mutant of SEL1L^cent lacking SLR motif 9) (domain or fragment, UniProt Q9Z2G6 348-497)
chain: NSGMLEEDLIQYYQFLAEKGDVQAQVGLGQLHLHGGRGVEQNHQRAFDYFNLAANAGNSHAMAFLGKMYSEGSDIVPQSNETALHYFKKAADMGNPVGQSGLGMAYLYGRGVQVNYDLALKYFQKAAEQGWVDGQLQLGSMYYNGIGVKR
Consider B5, for which the binding entry in test [5] and in test [6] was “no binding” each time.

B6: SEL1L^348–497 (SLR motif 9 deletion) expressed in HEK293T behind the SEL1L signal peptide (no KDEL) (domain or fragment, UniProt Q9Z2G6 348-497)
chain: B5 chain
As to B6, the binding result in test [1] is “no binding”.
